# Cell number after 72 h of treatment

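Human melanoma cells were exposed to two drugs together for 72 h in 1,536-well plates and read by automated microscopy after fixing and staining. Values are the number of DAPI-stained nuclei as a percentage of the DMSO control: 100 is no effect, lower means fewer cells. Every drug was used at one fixed concentration, the higher of two screened. These are primary screening values without error estimates.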 An unselected part of the screen is shown. A dash means that no value is listed here.

Compounds and concentrations:
XAV939 (10 µM): Oc1nc(-c2ccc(C(F)(F)F)cc2)nc2c1CSCC2
GW2580 (5 µM): COc1ccc(COc2ccc(Cc3cnc(N)nc3N)cc2OC)cc1
BI-78D3 (1 µM): O=c1[nH]nc(Sc2ncc([N+](=O)[O-])s2)n1-c1ccc2c(c1)OCCO2
everolimus (0.1 µM): CO[C@H]1C[C@@H]2CC[C@@H](C)[C@@](O)(O2)C(=O)C(=O)N2CCCC[C@H]2C(=O)O[C@H]([C@H](C)C[C@@H]2CC[C@@H](OCCO)[C@H](OC)C2)CC(=O)[C@H](C)/C=C(\C)[C@@H](O)[C@@H](OC)C(=O)[C@H](C)C[C@H](C)/C=C/C=C/C=C/1C
GW0742 (10 µM): Cc1cc(SCc2sc(-c3ccc(C(F)(F)F)c(F)c3)nc2C)ccc1OCC(=O)O
STA-4783 (0.03 µM): CN(NC(=O)CC(=O)NN(C)C(=S)c1ccccc1)C(=S)c1ccccc1
OSU-03012 (5 µM): NCC(=O)Nc1ccc(-n2nc(C(F)(F)F)cc2-c2ccc3c(ccc4ccccc43)c2)cc1
GW441756 (2 µM): Cn1cc(/C=C2\C(=O)Nc3cccnc32)c2ccccc21
JZL184 (5 µM): O=C(Oc1ccc([N+](=O)[O-])cc1)N1CCC(C(O)(c2ccc3c(c2)OCO3)c2ccc3c(c2)OCO3)CC1
fingolimod (10 µM): CCCCCCCCc1ccc(CCC(N)(CO)CO)cc1
SNS-032 (0.05 µM): CC(C)(C)c1cnc(CSc2cnc(NC(=O)C3CCNCC3)s2)o1
VX-702 (2 µM): NC(=O)c1ccc(N(C(N)=O)c2c(F)cccc2F)nc1-c1ccc(F)cc1F
indole-3-carbinol (4 µM): OCc1c[nH]c2ccccc12
lenalidomide (5 µM): Nc1cccc2c1CN(C1CCC(=O)NC1=O)C2=O (stereo not shown)

Combination	WM451Lu	COLO 792	COLO 800	COLO 829	C32
BI-78D3 + GW441756	-	108	82.0	105	113
SNS-032 + XAV939	-	75.5	70.4	127	90.7
lenalidomide + GW0742	-	102	77.9	96.3	96.8
GW2580 + STA-4783	-	38.3	20.1	61.6	29.3
JZL184 + lenalidomide	-	84.7	125	163	95.7
GW2580 + OSU-03012	-	73.2	51.6	79.8	108
fingolimod + GW0742	-	27.3	24.1	53.0	4.5
GW2580 + VX-702	-	94.1	100	103	111
OSU-03012 + fingolimod	-	1.7	7.6	12.5	6.7
JZL184 + GW0742	-	110	83.5	113	89.7
everolimus + fingolimod	-	1.4	3.2	50.9	2.3
GW2580 + BI-78D3	-	95.0	127	103	84.5
VX-702 + XAV939	-	89.5	75.1	92.2	103
GW0742 + STA-4783	-	11.3	30.5	46.5	61.4
BI-78D3 + XAV939	-	88.7	82.7	110	119
lenalidomide + fingolimod	-	11.3	34.2	67.4	11.0
JZL184 + OSU-03012	-	74.0	72.5	77.7	111
indole-3-carbinol + GW0742	-	119	88.7	112	96.8
GW0742 + XAV939	-	72.0	97.8	84.8	90.5
BI-78D3 + lenalidomide	-	81.0	64.0	106	96.1
fingolimod + STA-4783	-	4.4	13.2	19.5	18.2
GW441756 + GW0742	-	86.5	75.6	106	107
fingolimod + SNS-032	-	1.8	4.4	52.5	5.0
SNS-032 + JZL184	-	76.1	48.1	97.0	72.7
SNS-032 + GW0742	-	112	73.0	106	94.6
STA-4783 + GW441756	-	33.6	33.6	55.7	27.4
XAV939 + STA-4783	-	19.1	27.9	58.8	28.9
GW2580 + fingolimod	-	5.0	21.7	47.4	10.2
SNS-032 + indole-3-carbinol	-	76.7	59.2	112	83.8
VX-702 + indole-3-carbinol	-	88.8	51.1	75.6	105
GW441756 + VX-702	99.5	79.8	74.0	119	95.9

The last 2 entries again:

Combination	WM451Lu	COLO 792	COLO 800	COLO 829	C32
VX-702 + indole-3-carbinol	-	88.8	51.1	75.6	105
GW441756 + VX-702	99.5	79.8	74.0	119	95.9

Data from the primary screen of doi:10.1371/journal.pone.0140310, rounded.